Among all 340,000 compounds or so, about 170 (0.05%) were called active. The shares of active, inactive and inconclusive entries below differ from those in the screen. Calls come from the whole dose curve; as a rule, active = well fitted inhibition curve with a large enough effect in the signal ratio, with a control signal flat (not every such curve was filed as active); inconclusive = small, poorly fitted or top-dose-only effect, or effect the other way, or a change in a side signal; inactive = flat fitted curve, though single readings scatter; the % refers to the signal ratio. Potencies beside an inconclusive call are fits to weak or partial responses and may not hold up.
Experiment: qHTS Assay to Find Inhibitors of Chronic Active B-Cell Receptor Signaling;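 for activity change, negative = inhibition: plate controls were basal doxycycline-induced cells for no effect and cells given 10 µM MG132 for full effect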
Details: ABC-DLBCL IkBa-CBG/CBR reporter, luminescence ratio (green luciferase fused to IkBa over red control in TMD8 lymphoma cells), 4 h; activity change, negative = inhibition: at 46.1 µM (top of the series) unless noted
How it was run: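 TMD8 ABC-DLBCL cells carrying doxycycline-inducible green luciferase fused to IkappaBalpha plus unfused red luciferase were exposed to compounds (up to 46 uM) for 4 hrs at 37C. Activity came from the overlap-corrected green/red luminescence ratio.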
Potency is the fitted concentration of half-maximal effect.

Q: With `COc1ccccc1NCCC(=O)OCC(=O)NC1CC1` as the compound, how does the Potency read?
A: The Potency was inconclusive: 16.4 µM [falling, partial curve].

Q: For `COCCNc1nc(C)cc(-c2cc(C(=O)NC3CCCC3)on2)n1`, which Potency is on record?
A: The Potency was inconclusive: 11.2 µM [falling, partial curve].

Q: For `O=C(NC12CC3CC(CC(C3)C1)C2)c1ccccc1O`, which activity change, negative = inhibition is on record?
A: The activity change, negative = inhibition was inconclusive: -0.223%.

Q: For `Cc1ccc(N2C(=O)CC(Cc3cccc(C)c3)C2=O)cc1` (stereo not drawn), which activity change, negative = inhibition is on record?
A: Its activity change, negative = inhibition is inconclusive: 18.8%.

Q: Which “activity change, negative = inhibition” value does the source give for `CCN(Cc1ccccc1)C(=O)c1ccc(CS(=O)c2ccccc2C)o1` (stereo not drawn) here?
A: Its value is inactive: -0.0179%.

Q: Which Potency does the source give for `CC(=O)Oc1ccc(-c2nc3ccccc3c(=O)o2)cc1` here?
A: The Potency was inconclusive: 15.8 µM [falling, single point].

Q: With `CCN1CCN(c2ccc(NC(=O)c3cc(S(=O)(=O)N4CCCC4)ccc3Cl)cc2)CC1` as the compound, how does the activity change, negative = inhibition read?
A: The activity change, negative = inhibition was inconclusive: 11.4%.

Q: Which activity change, negative = inhibition does the source give for `CCOC(=O)c1c(NC(=O)c2ccccc2N(C)S(=O)(=O)c2ccccc2)sc2c1CCCC2` here?
A: The activity change, negative = inhibition was inconclusive: 8.3%.

Q: For `Cc1ccc(S(=O)(=O)NCCc2nnc3ccc(SCC(=O)Nc4nc5ccccc5s4)nn23)cc1`, which Potency is on record?
A: The Potency was inconclusive: 3.26 µM [falling, partial curve, poor fit].

Q: With `COc1ccc(CN(C(=O)c2ccc(CN3CCOCC3)o2)C(C(=O)NCC2CCCO2)c2ccc(F)cc2)cc1` (stereo not drawn) as the compound, how does the Potency read?
A: Its Potency is inconclusive: 25.1 µM [falling, single point].

Q: For `Cc1nc(-c2ccccc2)sc1C1(C)CC(c2cccc([N+](=O)[O-])c2)=NO1` (stereo not drawn), which activity change, negative = inhibition is on record?
A: The activity change, negative = inhibition was inconclusive: 4.77%.

Q: Which Potency does the source give for `O=C(NCc1ccco1)c1cccc(NC(=O)c2ccco2)c1` here?
A: Its Potency is inconclusive: 32.6 µM [falling, single point].

Q: Which “activity change, negative = inhibition” value does the source give for `CCOC(=O)c1c(N)n(CC(C)NC(=O)C2CC2)c2nc3ccccc3nc12` (stereo not drawn) here?
A: Its value is inactive: -3.62%.

Q: Which “activity change, negative = inhibition” value does the source give for `Cc1ccc(S(=O)(=O)N2CCN(C(=O)COC(=O)c3cnc(C)cn3)CC2)c(C)c1` here?
A: The value was inactive: 1.76%.

Q: With `Cc1ccc(NC(=O)C(c2ccccc2)N(C)C)cc1Cl` (stereo not drawn) as the compound, how does the activity change, negative = inhibition read?
A: The activity change, negative = inhibition was inconclusive: -0.32%.

Q: With `COc1ccccc1CNC(=O)C1CCC(CNS(=O)(=O)c2ccc(NC(C)=O)cc2)CC1` (stereo not drawn) as the compound, how does the activity change, negative = inhibition read?
A: Its activity change, negative = inhibition is inconclusive: 0.161%.

Q: With `Cc1ccc(-c2csc(NC(=O)c3ccc4c(=O)n5c(nc4c3)CCCCC5)n2)cc1` as the compound, how does the Potency read?
A: Its Potency is inconclusive: 4.61 µM [falling, partial curve, poor fit].

Q: Which activity change, negative = inhibition does the source give for `CCC(CC)c1nnc(NC(=O)CN2C(=O)C3C4C=CC(C4)C3C2=O)s1` (stereo not drawn) here?
A: The activity change, negative = inhibition was inconclusive: -5.32%.

Q: With `C=CCNc1nc(SCC=C)nc2ccsc12` as the compound, how does the activity change, negative = inhibition read?
A: Its activity change, negative = inhibition is inconclusive: -0.98%.

Q: With `Cc1ccc(O)c(-c2cc(C(=O)Nc3ccc(S(=O)(=O)Nc4nccc(C)n4)cc3)[nH]n2)c1` as the compound, how does the Potency read?
A: The Potency was inconclusive: 28.2 µM [falling, single point].

Q: With `O=C(Nc1ccccc1)C1Cc2ccccc2CN1C(=O)c1ccco1` (stereo not drawn) as the compound, how does the Potency read?
A: The Potency was inconclusive: 18.4 µM [falling, partial curve].

Q: For `CCc1nnc(N/N=C/c2cc(C)c(C)cc2C)n1N`, which Potency is on record?
A: The Potency was inconclusive: 22.4 µM [falling, partial curve, poor fit].

Q: For `c1ccc(N2CCCCC2)c(Nc2nc3ccccc3n3cnnc23)c1`, which activity change, negative = inhibition is on record?
A: The activity change, negative = inhibition was inconclusive: 4.48%.

Q: Which activity change, negative = inhibition does the source give for `CN(C)CCCNS(=O)(=O)c1ccc(N2CCN(Cc3ccc4c(c3)OCO4)CC2)c([N+](=O)[O-])c1` here?
A: The activity change, negative = inhibition was inconclusive: -21.4%.

Q: With `Nc1c(-c2ccccc2)cnc2cc(-c3ccccc3)nn12` as the compound, how does the Potency read?
A: Its Potency is inconclusive: 7.08 µM [rising, full curve].

Q: With `Cc1c(OCc2ccccc2)c(=O)ccn1Cc1ccccc1` as the compound, how does the “activity change, negative = inhibition” value read?
A: Its value is inactive: 0.612%.

Q: With `O=C(O)CC(CC(=O)Nc1ccc(Oc2ccccc2)cc1)c1ccccc1` (stereo not drawn) as the compound, how does the activity change, negative = inhibition read?
A: The activity change, negative = inhibition was inconclusive: -24%.

Q: For `Cc1ccc(-n2ncc3c(N4CCCCC4)ncnc32)cc1`, which Potency is on record?
A: Its Potency is inconclusive: 22.4 µM [falling, single point].

Q: For `CCN(CC)S(=O)(=O)c1cccc(-c2nnc(C(=O)c3ccc(C(F)(F)F)cc3)o2)c1`, which activity change, negative = inhibition is on record?
A: Its activity change, negative = inhibition is inconclusive: 4.87%.

Q: Which “activity change, negative = inhibition” value does the source give for `Nc1c(Cl)cc(C2=NCCn3c2c2ccccc2[n+]3[O-])cc1Cl` here?
A: Its value is inactive: -26%.

Q: Which Potency does the source give for `COc1ccc2cnn(CCOc3ccccc3)c(=O)c2c1OC` here?
A: Its Potency is inconclusive: 35.5 µM [falling, single point].

Q: With `COc1ccccc1CNS(=O)(=O)c1ccc(-c2cc(C)no2)cc1` as the compound, how does the Potency read?
A: The Potency was inconclusive: 2.82 µM [falling, partial curve].

Q: For `CCCOc1ccc(C(=O)NCCc2ccccc2)cc1`, which Potency is on record?
A: The Potency was inconclusive: 35.5 µM [falling, single point].

Q: Which Potency does the source give for `O=C(OCC(=O)N1CCC(Cc2ccccc2)CC1)c1ccccc1NCCO` here?
A: The Potency was inconclusive: 20.6 µM [falling, partial curve].

Q: Which “activity change, negative = inhibition” value does the source give for `Cc1cc(C(=O)CSc2n[nH]c(N)n2)c(C)n1-c1ccc(F)cc1` here?
A: Its value is inactive: -0.636%.

Q: For `CCCC1=Nc2cc(C(=O)NCCCOCC)ccc2Sc2ccccc21`, which Potency is on record?
A: Its Potency is inconclusive: 0.447 µM [falling, full curve, poor fit].

Q: Which “activity change, negative = inhibition” value does the source give for `O=C(Nc1ccc(Cl)c(Cl)c1)Nn1cnnc1` here?
A: The value was inactive: 1.31%.

Q: With `N#Cc1c(NC(=O)CS(=O)(=O)c2ccc(Cl)cc2)sc2c1CCCCC2` as the compound, how does the Potency read?
A: The Potency was inconclusive: 1 µM [rising, single point].

Q: Which Potency does the source give for `Cc1nn(C)c(C)c1S(=O)(=O)N1CCC(C(=O)NC2CCCCCC2)CC1` here?
A: The Potency was inconclusive: 18.4 µM [falling, partial curve, poor fit].

Q: Which activity change, negative = inhibition does the source give for `CC(CC(=O)Nc1nc2ccccc2[nH]1)n1ccnc1` (stereo not drawn) here?
A: Its activity change, negative = inhibition is inconclusive: 0.475%.

Q: For `COc1ccccc1Oc1coc2c(CN(C)C)c(O)ccc2c1=O`, which “activity change, negative = inhibition” value is on record?
A: Its value is inactive: 0.246%.

Q: For `COCCn1c(=O)[nH]c2cc(C(=O)NCCc3ccc(OC)c(OC)c3)ccc2c1=O`, which activity change, negative = inhibition is on record?
A: The activity change, negative = inhibition was inconclusive: 17.2%.

Q: Which “activity change, negative = inhibition” value does the source give for `CC(=O)N1C(=O)NC2=C(C(=O)CCC2)C1c1cccc([N+](=O)[O-])c1` (stereo not drawn) here?
A: Its value is inactive: -9.11%.

Q: With `CC(C)CN(CC(C)C)S(=O)(=O)N1CCC(C(=O)NC2CCCCCCC2)CC1` as the compound, how does the “activity change, negative = inhibition” value read?
A: The value was inactive: -6.65%.

Q: Which “activity change, negative = inhibition” value does the source give for `COc1ccc(CN2C(=O)C(CC(C)C)Nc3ncnc(N4CCN(c5ccccn5)CC4)c32)cc1` (stereo not drawn) here?
A: Its value is inactive: -7.83%.

Q: For `CCN(CC)C(=O)c1cccc(NC(=O)c2cc(-c3ccccn3)nc3ccccc23)c1`, which “activity change, negative = inhibition” value is on record?
A: The value was inactive: -2.63%.

Q: Which “activity change, negative = inhibition” value does the source give for `Cc1cc(C(=O)CSc2nnc(-c3ccccc3F)o2)c(C)n1Cc1cccs1` here?
A: The value was inactive: -0.612%.

Q: For `O=C(COc1ccc(-n2ccnc2)cc1)Nc1cccc(Cl)c1`, which activity change, negative = inhibition is on record?
A: The activity change, negative = inhibition was inconclusive: 2.36%.
